Data reported in the supplement of paper PMC4604168 (melanoma cell lines).
The other results are listed elsewhere or left out. Single values are uncertain, as repeats are few or missing.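 Cells were imaged in 1,536-well plates, and nuclei stained with an antibody against cleaved PARP were counted against all DNA-stained nuclei to give the apoptosis fraction. Screening doses were chosen to leave most cells alive, and resting and induced cleaved-PARP levels differ strongly between cell lines.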

How the values were obtained:
Assay in all cases: cleaved PARP positive nuclei fraction relative to DMSO control; melanoma cells; higher = more apoptosis
Conditions in all cases: library dose: low library concentration; 72 h
[1] = tested on: 501Mel
[2] = tested on: A101D
[3] = tested on: A2058
[4] = tested on: C32
[5] = tested on: CBRC008 (line from a melanoma biopsy)
[6] = tested on: CBRC014 (line from a melanoma biopsy)
[7] = tested on: CBRC016 (line from a melanoma biopsy)
[8] = tested on: CBRC017 (line from a melanoma biopsy)
[9] = tested on: COLO792
[10] = tested on: COLO800
[11] = tested on: COLO829
[12] = tested on: G361
[13] = tested on: IPC-298
[14] = tested on: IST-MEL1
[15] = tested on: LB2518-MEL
[16] = tested on: LOXIMVI

Compound	cleaved PARP positive nuclei fraction [1]	cleaved PARP positive nuclei fraction [2]	cleaved PARP positive nuclei fraction [3]	cleaved PARP positive nuclei fraction [4]	cleaved PARP positive nuclei fraction [5]	cleaved PARP positive nuclei fraction [6]	cleaved PARP positive nuclei fraction [7]	cleaved PARP positive nuclei fraction [8]	cleaved PARP positive nuclei fraction [9]	cleaved PARP positive nuclei fraction [10]	cleaved PARP positive nuclei fraction [11]	cleaved PARP positive nuclei fraction [12]	cleaved PARP positive nuclei fraction [13]	cleaved PARP positive nuclei fraction [14]	cleaved PARP positive nuclei fraction [15]	cleaved PARP positive nuclei fraction [16]
CCCCCCCCc1ccc(CCC(N)(CO)CO)cc1 [fingolimod] + CCN(CC)CCCCNc1ncc2cc(-c3cc(OC)cc(OC)c3)c(NC(=O)NC(C)(C)C)nc2n1 [PD173074] (first compound 2 µM, partner dose 0.1 µM)	171%	48.3%	188%	286%	66.2%	103%	73.3%	138%	55%	194%	277%	266%	241%	49.2%	67.3%	62.8%
CN(c1ncccc1CNc1nc(Nc2ccc3c(c2)CC(=O)N3)ncc1C(F)(F)F)S(C)(=O)=O + Cn1cc(/C=C2\C(=O)Nc3cccnc32)c2ccccc21 [GW441756] (first compound 0.08 µM, partner dose 0.4 µM)	93.1%	29.1%	47.4%	88.8%	422%	94.5%	99.5%	50.7%	123%	160%	128%	44.9%	97.3%	217%	43.2%	87.8%
CC(=O)O[C@@]12CO[C@@H]1C[C@H](O)[C@@]1(C)C(=O)[C@H](O)C3=C(C)[C@@H](OC(=O)[C@H](O)[C@@H](NC(=O)OC(C)(C)C)c4ccccc4)C[C@@](O)([C@@H](OC(=O)c4ccccc4)[C@H]21)C3(C)C [Docetaxel] + COc1ccc(COc2ccc(Cc3cnc(N)nc3N)cc2OC)cc1 [GW2580] (first compound 0.0001 µM, partner dose 1 µM)	224%	58%	4540%	40.3%	252%	205%	218%	100%	827%	426%	659%	545%	349%	201%	419%	474%
NC1(c2ccc(-c3nc4ccn5c(=O)[nH]nc5c4cc3-c3ccccc3)cc2)CCC1 + COc1ccc(-c2ccc3c(N4CCOCC4)nc(N4C[C@@H](C)O[C@@H](C)C4)nc3n2)cc1CO [KU0063794] (first compound 0.4 µM, partner dose 0.02 µM)	148%	37.7%	47.7%	132%	86.7%	82.2%	110%	82.9%	138%	135%	98.7%	75.3%	147%	568%	88.9%	109%
NC(=O)c1ccc(N(C(N)=O)c2c(F)cccc2F)nc1-c1ccc(F)cc1F + COC(=O)c1sccc1S(=O)(=O)Nc1ccc(Nc2ccccc2)cc1OC [GSK0660] (first compound 0.4 µM, partner dose 1 µM)	64.2%	45.9%	67.4%	143%	120%	107%	82.2%	101%	78.7%	21.2%	86.7%	98%	181%	74.5%	66.9%	105%
C[C@@H](N)c1ccc(C(=O)Nc2ccnc3[nH]ccc23)cc1 + c1cc(-c2cnn3cc(-c4ccc(OCCN5CCCCC5)cc4)cnc23)ccn1 [Dorsomorphin] (first compound 0.4 µM, partner dose 0.4 µM)	74.4%	12.2%	131%	83.8%	164%	89.9%	66.9%	86.3%	42.7%	86.1%	29.5%	109%	47.1%	77.7%	60.9%	196%
Cn1sc(=O)n(Cc2ccccc2)c1=O + O=c1cc(-c2cccc3c2Sc2ccccc2S3)oc(N2CCOCC2)c1 [KU55933] (first compound 0.4 µM, partner dose 1 µM)	60.3%	27.9%	73.7%	126%	68.4%	71.4%	1720%	87.2%	66.5%	37%	89.1%	121%	91.8%	167%	59.6%	123%
NC(=O)c1ccc(N(C(N)=O)c2c(F)cccc2F)nc1-c1ccc(F)cc1F + COc1ccc(COc2ccc(Cc3cnc(N)nc3N)cc2OC)cc1 [GW2580] (first compound 0.4 µM, partner dose 1 µM)	76.5%	126%	180%	910%	37.5%	94.5%	35.7%	105%	111%	70.8%	81.6%	86.3%	189%	226%	69.3%	818%
CN(c1ncccc1CNc1nc(Nc2ccc3c(c2)CC(=O)N3)ncc1C(F)(F)F)S(C)(=O)=O + COC(=O)c1sccc1S(=O)(=O)Nc1ccc(Nc2ccccc2)cc1OC [GSK0660] (first compound 0.08 µM, partner dose 1 µM)	35.4%	26.2%	101%	322%	61.9%	93.8%	106%	99.7%	219%	169%	77.6%	34.4%	63.8%	122%	75.9%	182%
Cn1cnc2c(F)c(Nc3ccc(Br)cc3Cl)c(C(=O)NOCCO)cc21 [selumetinib] + COc1cc2ncnc(Nc3ccc(Oc4ccccc4)cc3)c2cc1OC [SrcI1] (first compound 0.015 µM, partner dose 2 µM)	323%	31.8%	70.7%	115%	203%	79.9%	73%	188%	135%	35.8%	176%	169%	88.6%	109%	169%	28.7%
Cn1cnc2c(F)c(Nc3ccc(Br)cc3Cl)c(C(=O)NOCCO)cc21 [selumetinib] + COC(=O)c1sccc1S(=O)(=O)Nc1ccc(Nc2ccccc2)cc1OC [GSK0660] (first compound 0.015 µM, partner dose 1 µM)	99.1%	56.8%	146%	147%	157%	90.2%	52%	114%	97.4%	44.8%	20.7%	149%	65.7%	98.2%	228%	61.1%
CCCCCCCCc1ccc(CCC(N)(CO)CO)cc1 [fingolimod] + O=C(O)C(=O)Nc1sc2c(c1C(=O)O)CCNC2 [TCS401] (first compound 2 µM, partner dose 1.66667 µM)	112%	16.5%	32.4%	64.5%	120%	81.2%	34.7%	182%	94.3%	62.2%	151%	85%	134%	138%	205%	56.6%
Cn1cnc2c(F)c(Nc3ccc(Br)cc3Cl)c(C(=O)NOCCO)cc21 [selumetinib] + Cn1cc(/C=C2\C(=O)Nc3cccnc32)c2ccccc21 [GW441756] (first compound 0.015 µM, partner dose 0.4 µM)	135%	12.3%	46.8%	80.1%	241%	85%	130%	108%	84.2%	125%	60.6%	214%	121%	40.3%	288%	38.4%
CC(=O)O[C@@]12CO[C@@H]1C[C@H](O)[C@@]1(C)C(=O)[C@H](O)C3=C(C)[C@@H](OC(=O)[C@H](O)[C@@H](NC(=O)OC(C)(C)C)c4ccccc4)C[C@@](O)([C@@H](OC(=O)c4ccccc4)[C@H]21)C3(C)C [Docetaxel] + CCN(CC)CCCCNc1ncc2cc(-c3cc(OC)cc(OC)c3)c(NC(=O)NC(C)(C)C)nc2n1 [PD173074] (first compound 0.0001 µM, partner dose 0.1 µM)	96.3%	53.9%	3690%	401%	372%	147%	147%	130%	911%	191%	201%	626%	488%	256%	180%	44.8%
C[C@@H](N)c1ccc(C(=O)Nc2ccnc3[nH]ccc23)cc1 + Cn1cc(/C=C2\C(=O)Nc3cccnc32)c2ccccc21 [GW441756] (first compound 0.4 µM, partner dose 0.4 µM)	83.7%	12.9%	44.9%	112%	140%	104%	200%	106%	45.3%	103%	103%	173%	137%	18.2%	151%	38.4%
CS(=O)(=O)c1ccc(C(=O)Nc2ccc(Cl)c(-c3ccccn3)c2)c(Cl)c1 [vismodegib] + COc1ccc(-c2ccc3c(N4CCOCC4)nc(N4C[C@@H](C)O[C@@H](C)C4)nc3n2)cc1CO [KU0063794] (first compound 1 µM, partner dose 0.02 µM)	62.1%	16.8%	77.7%	158%	289%	196%	114%	238%	140%	199%	187%	47.7%	211%	146%	155%	83.5%
Cn1sc(=O)n(Cc2ccccc2)c1=O + Oc1nc(-c2ccc(C(F)(F)F)cc2)nc2c1CSCC2 [XAV939] (first compound 0.4 µM, partner dose 2 µM)	113%	14.5%	90%	94%	65.3%	91.9%	69.4%	115%	57.8%	109%	35.9%	74.4%	29.9%	116%	79.1%	87.5%
NC(=O)c1ccc(N(C(N)=O)c2c(F)cccc2F)nc1-c1ccc(F)cc1F + COc1cc2ncnc(Nc3ccc(Oc4ccccc4)cc3)c2cc1OC [SrcI1] (first compound 0.4 µM, partner dose 2 µM)	161%	36.9%	65.3%	79.2%	57.6%	81.7%	44.8%	190%	112%	53.9%	53.9%	79.7%	72%	92%	50.6%	37.2%
CN(c1ncccc1CNc1nc(Nc2ccc3c(c2)CC(=O)N3)ncc1C(F)(F)F)S(C)(=O)=O + c1cc(-c2cnn3cc(-c4ccc(OCCN5CCCCC5)cc4)cnc23)ccn1 [Dorsomorphin] (first compound 0.08 µM, partner dose 0.4 µM)	79.1%	15%	155%	640%	57.3%	120%	89.2%	91.9%	29.4%	76.8%	85.4%	92.4%	65.8%	330%	39.3%	243%

Retrieved one by one from the entries so far:
Compound	cleaved PARP positive nuclei fraction [1]	cleaved PARP positive nuclei fraction [2]	cleaved PARP positive nuclei fraction [3]	cleaved PARP positive nuclei fraction [4]	cleaved PARP positive nuclei fraction [5]	cleaved PARP positive nuclei fraction [6]	cleaved PARP positive nuclei fraction [7]	cleaved PARP positive nuclei fraction [8]	cleaved PARP positive nuclei fraction [9]	cleaved PARP positive nuclei fraction [10]	cleaved PARP positive nuclei fraction [11]	cleaved PARP positive nuclei fraction [12]	cleaved PARP positive nuclei fraction [13]	cleaved PARP positive nuclei fraction [14]	cleaved PARP positive nuclei fraction [15]	cleaved PARP positive nuclei fraction [16]
CC(=O)O[C@@]12CO[C@@H]1C[C@H](O)[C@@]1(C)C(=O)[C@H](O)C3=C(C)[C@@H](OC(=O)[C@H](O)[C@@H](NC(=O)OC(C)(C)C)c4ccccc4)C[C@@](O)([C@@H](OC(=O)c4ccccc4)[C@H]21)C3(C)C [Docetaxel] + CCN(CC)CCCCNc1ncc2cc(-c3cc(OC)cc(OC)c3)c(NC(=O)NC(C)(C)C)nc2n1 [PD173074] (first compound 0.0001 µM, partner dose 0.1 µM)	96.3%	53.9%	3690%	401%	372%	147%	147%	130%	911%	191%	201%	626%	488%	256%	180%	44.8%
CN(c1ncccc1CNc1nc(Nc2ccc3c(c2)CC(=O)N3)ncc1C(F)(F)F)S(C)(=O)=O + c1cc(-c2cnn3cc(-c4ccc(OCCN5CCCCC5)cc4)cnc23)ccn1 [Dorsomorphin] (first compound 0.08 µM, partner dose 0.4 µM)	79.1%	15%	155%	640%	57.3%	120%	89.2%	91.9%	29.4%	76.8%	85.4%	92.4%	65.8%	330%	39.3%	243%
